No constants are given. Whether binding was seen depends on the method and setting. Binding seen in cells or lysates may run through a third protein. Some binding calls cover weakened binding; strength is not graded here. For part of these data: Tags and fused reporters may be left off the sequences shown. Blank lines part the entries; values can stand above or below the binder they belong to.
How the values were obtained:
[1] = molecular target: Abi1 (human (endogenous in K562)) (UniProt Q8IZP0); assay: co-IP; endogenous proteins immunoprecipitated from precleared K562 whole cell lysates (GammaBind G Sepharose), immunoblot; in Figures 5A and 6E cells cultured on 10 ug/ml fibronectin for 24 h; in Figure 6E shC3G or shCT clones
GST-Abl-SH3 = GST-Abl-SH3 (UniProt P00519); assay: pull-down; 12 ug GST-fusion protein on glutathione-sepharose 4 fast flow beads with 1 mg K562 protein extract in lysis buffer, 2 h at 4 °C, 3 washes, immunoblot; also lysates of shAbi1-2, shCbl-1, shp130Cas-5 and shControl K562 clones; only the target purified
GST-p130Cas-SH3 = molecular target: T1, GST-p130Cas-SH3 (UniProt P56945); assay: as above
T1 sequence: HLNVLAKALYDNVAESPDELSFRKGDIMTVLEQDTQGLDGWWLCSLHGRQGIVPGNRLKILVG

The chains behind the UniProt entries cited, without tags or fusion partners. Residues count along the entry.
UniProt Q8IZP0: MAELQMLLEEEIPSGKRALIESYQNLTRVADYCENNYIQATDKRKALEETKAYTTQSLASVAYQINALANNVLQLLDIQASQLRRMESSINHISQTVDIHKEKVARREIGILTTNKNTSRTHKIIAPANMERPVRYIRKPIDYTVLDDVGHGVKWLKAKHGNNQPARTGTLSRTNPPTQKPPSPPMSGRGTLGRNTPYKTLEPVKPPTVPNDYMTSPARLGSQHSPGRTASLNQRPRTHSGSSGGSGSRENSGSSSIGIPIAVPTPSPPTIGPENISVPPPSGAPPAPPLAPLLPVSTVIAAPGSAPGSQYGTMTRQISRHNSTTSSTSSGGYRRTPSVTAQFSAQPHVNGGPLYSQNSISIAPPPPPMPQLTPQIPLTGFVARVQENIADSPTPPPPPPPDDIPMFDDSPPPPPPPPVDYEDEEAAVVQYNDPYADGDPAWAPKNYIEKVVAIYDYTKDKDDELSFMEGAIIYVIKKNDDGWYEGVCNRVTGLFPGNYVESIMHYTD
UniProt P00519, residues 61-121: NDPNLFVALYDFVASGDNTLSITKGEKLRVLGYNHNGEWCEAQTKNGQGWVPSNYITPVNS

- binding [1]: binds
- binding (GST-Abl-SH3): binds
B1: p130Cas (protein, UniProt P56945-1 1-870)
chain: MNHLNVLAKALYDNVAESPDELSFRKGDIMTVLEQDTQGLDGWWLCSLHGRQGIVPGNRLKILVGMYDKKPAGPGPGPPATPAQPQPGLHAPAPPASQYTPMLPNTYQPQPDSVYLVPTPSKAQQGLYQVPGPSPQFQSPPAKQTSTFSKQTPHHPFPSPATDLYQVPPGPGGPAQDIYQVPPSAGMGHDIYQVPPSMDTRSWEGTKPPAKVVVPTRVGQGYVYEAAQPEQDEYDIPRHLLAPGPQDIYDVPPVRGLLPSQYGQEVYDTPPMAVKGPNGRDPLLEVYDVPPSVEKGLPPSNHHAVYDVPPSVSKDVPDGPLLREETYDVPPAFAKAKPFDPARTPLVLAAPPPDSPPAEDVYDVPPPAPDLYDVPPGLRRPGPGTLYDVPRERVLPPEVADGGVVDSGVYAVPPPAEREAPAEGKRLSASSTGSTRSSQSASSLEVAGPGREPLELEVAVEALARLQQGVSATVAHLLDLAGSAGATGSWRSPSEPQEPLVQDLQAAVAAVQSAVHELLEFARSAVGNAAHTSDRALHAKLSRQLQKMEDVHQTLVAHGQALDAGRGGSGATLEDLDRLVACSRAVPEDAKQLASFLHGNASLLFRRTKATAPGPEGGGTLHPNPTDKTSSIQSRPLPSPPKFTSQDSPDGQYENSEGGWMEDYDYVHLQGKEEFEKTQKELLEKGSITRQGKSQLELQQLKQFERLEQEVSRPIDHDLANWTPAQPLAPGRTGGLGPSDRQLLLFYLEQCEANLTTLTNAVDAFFTAVATNQPPKIFVAHSKFVILSAHKLVFIGDTLSRQAKAADVRSQVTHYSNLLCDLLRGIVATTKAAALQYPSPSAAQDMVERVKELGHSTQQFRRVLGQLAAA

- binding (GST-p130Cas-SH3): binds
B2: p140C3G (protein, UniProt Q13905 1-1077)
chain: MDTDSQRSHLSSFTMKLMDKFHSPKIKRTPSKKGKPAEVSVKIPEKPVNKEATDRFLPEGYPLPLDLEQQAVEFMSTSAVASRSQRQKNLSWLEEKEKEVVSALRYFKTIVDKMAIDKKVLEMLPGSASKVLEAILPLVQNDPRIQHSSALSSCYSRVYQSLANLIRWSDQVMLEGVNSEDKEMVTTVKGVIKAVLDGVKELVRLTIEKQGRPSPTSPVKPSSPASKPDGPAELPLTDREVEILNKTTGMSQSTELLPDATDEEVAPPKPPLPGIRVVDNSPPPALPPKKRQSAPSPTRVAVVAPMSRATSGSSLPVGINRQDFDVDCYAQRRLSGGSHSYGGESPRLSPCSSIGKLSKSDEQLSSLDRDSGQCSRNTSCETLDHYDPDYEFLQQDLSNADQIPQQTAWNLSPLPESLGESGSPFLGPPFQLPLGGHPQPDGPLAPGQQTDTPPALPEKKRRSAASQTADGSGCRVSYERHPSQYDNISGEDLQSTAPIPSVPYAPFAAILPFQHGGSSAPVEFVGDFTAPESTGDPEKPPPLPEKKNKHMLAYMQLLEDYSEPQPSMFYQTPQNEHIYQQKNKLLMEVYGFSDSFSGVDSVQELAPPPALPPKQRQLEPPAGKDGHPRDPSAVSGVPGKDSRDGSERAPKSPDALESAQSEEEVDELSLIDHNEIMSRLTLKQEGDDGPDVRGGSGDILLVHATETDRKDLVLYCEAFLTTYRTFISPEELIKKLQYRYEKFSPFADTFKKRVSKNTFFVLVRVVDELCLVELTEEILKLLMELVFRLVCNGELSLARVLRKNILDKVDQKKLLRCATSSQPLAARGVAARPGTLHDFHSHEIAEQLTLLDAELFYKIEIPEVLLWAKEQNEEKSPNLTQFTEHFNNMSYWVRSIIMLQEKAQDRERLLLKFIKIMKHLRKLNNFNSYLAILSALDSAPIRRLEWQKQTSEGLAEYCTLIDSSSSFRAYRAALSEVEPPCIPYLGLILQDLTFVHLGNPDYIDGKVNFSKRWQQFNILDSMRCFQQAHYDMRRNDDIINFFNDFSDHLAEEALWELSLKIKPRNITRRKTDREEKT

From article PMC3629710
